# Primary screen of a compound library

Amino acid sequences for entries named in this document (tags omitted). Residues count along the entry.
UniProt I6X8D2, whole entry: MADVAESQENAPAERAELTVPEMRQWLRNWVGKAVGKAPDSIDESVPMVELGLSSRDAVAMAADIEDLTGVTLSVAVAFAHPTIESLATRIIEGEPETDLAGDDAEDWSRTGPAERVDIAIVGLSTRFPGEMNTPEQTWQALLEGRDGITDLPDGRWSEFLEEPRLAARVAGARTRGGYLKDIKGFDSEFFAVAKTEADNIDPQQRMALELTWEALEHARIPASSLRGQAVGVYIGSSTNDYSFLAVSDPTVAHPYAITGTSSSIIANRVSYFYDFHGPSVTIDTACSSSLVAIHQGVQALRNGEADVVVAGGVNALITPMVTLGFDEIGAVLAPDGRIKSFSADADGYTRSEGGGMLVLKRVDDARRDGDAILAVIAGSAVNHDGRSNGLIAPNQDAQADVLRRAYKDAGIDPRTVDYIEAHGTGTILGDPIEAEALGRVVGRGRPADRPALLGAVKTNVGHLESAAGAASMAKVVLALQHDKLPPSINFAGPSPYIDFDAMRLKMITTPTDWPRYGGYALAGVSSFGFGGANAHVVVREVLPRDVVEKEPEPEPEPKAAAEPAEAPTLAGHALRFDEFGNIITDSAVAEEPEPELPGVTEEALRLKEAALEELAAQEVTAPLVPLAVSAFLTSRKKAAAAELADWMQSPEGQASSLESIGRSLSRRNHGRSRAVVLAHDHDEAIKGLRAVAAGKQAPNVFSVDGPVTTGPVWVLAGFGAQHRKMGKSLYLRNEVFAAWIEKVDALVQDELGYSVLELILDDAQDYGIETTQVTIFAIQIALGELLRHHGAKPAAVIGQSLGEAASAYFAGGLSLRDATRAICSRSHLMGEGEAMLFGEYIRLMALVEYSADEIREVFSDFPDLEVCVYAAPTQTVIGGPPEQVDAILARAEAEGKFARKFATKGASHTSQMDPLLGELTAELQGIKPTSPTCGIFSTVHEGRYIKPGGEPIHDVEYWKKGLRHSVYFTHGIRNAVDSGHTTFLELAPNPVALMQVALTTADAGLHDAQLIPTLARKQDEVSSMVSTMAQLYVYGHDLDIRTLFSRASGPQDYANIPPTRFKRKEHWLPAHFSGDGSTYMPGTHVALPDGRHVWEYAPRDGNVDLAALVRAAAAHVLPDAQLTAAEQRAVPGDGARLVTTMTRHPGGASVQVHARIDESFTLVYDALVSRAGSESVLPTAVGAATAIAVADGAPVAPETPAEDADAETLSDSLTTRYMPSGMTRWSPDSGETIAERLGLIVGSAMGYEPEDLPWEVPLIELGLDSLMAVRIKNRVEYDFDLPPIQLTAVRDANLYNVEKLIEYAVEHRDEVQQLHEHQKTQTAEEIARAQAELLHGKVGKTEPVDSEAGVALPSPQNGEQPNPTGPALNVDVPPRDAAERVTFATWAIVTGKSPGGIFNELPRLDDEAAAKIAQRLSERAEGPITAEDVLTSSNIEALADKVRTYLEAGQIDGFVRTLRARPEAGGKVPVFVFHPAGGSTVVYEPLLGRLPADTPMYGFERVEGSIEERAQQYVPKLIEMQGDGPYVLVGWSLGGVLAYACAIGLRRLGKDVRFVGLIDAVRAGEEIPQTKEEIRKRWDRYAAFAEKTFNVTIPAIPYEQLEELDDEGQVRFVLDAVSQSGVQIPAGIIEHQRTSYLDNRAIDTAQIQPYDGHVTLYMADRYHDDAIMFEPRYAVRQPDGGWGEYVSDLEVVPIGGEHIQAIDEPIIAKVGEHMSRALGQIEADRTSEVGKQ
UniProt P9WFT3, whole entry: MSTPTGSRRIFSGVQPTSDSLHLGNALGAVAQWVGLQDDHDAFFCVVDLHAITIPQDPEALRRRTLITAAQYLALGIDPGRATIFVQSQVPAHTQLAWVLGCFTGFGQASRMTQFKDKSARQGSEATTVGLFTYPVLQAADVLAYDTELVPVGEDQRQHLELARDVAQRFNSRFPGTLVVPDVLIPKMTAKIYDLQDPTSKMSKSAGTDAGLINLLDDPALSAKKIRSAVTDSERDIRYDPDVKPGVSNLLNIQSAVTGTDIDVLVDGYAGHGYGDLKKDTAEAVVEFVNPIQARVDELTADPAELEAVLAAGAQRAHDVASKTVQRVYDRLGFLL
UniProt P9WNZ1, whole entry: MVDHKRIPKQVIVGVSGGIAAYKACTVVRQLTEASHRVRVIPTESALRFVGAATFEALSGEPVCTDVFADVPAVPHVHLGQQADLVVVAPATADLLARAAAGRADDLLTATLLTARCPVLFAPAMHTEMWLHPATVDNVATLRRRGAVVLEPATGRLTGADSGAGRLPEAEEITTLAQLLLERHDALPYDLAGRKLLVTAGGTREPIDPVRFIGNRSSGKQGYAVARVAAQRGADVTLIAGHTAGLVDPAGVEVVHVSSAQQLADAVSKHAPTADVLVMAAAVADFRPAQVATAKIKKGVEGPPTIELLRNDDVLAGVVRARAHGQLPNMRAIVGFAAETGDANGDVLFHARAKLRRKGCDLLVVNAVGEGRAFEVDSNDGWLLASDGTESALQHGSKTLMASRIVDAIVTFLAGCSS
UniProt Q8IDJ8, 1-583: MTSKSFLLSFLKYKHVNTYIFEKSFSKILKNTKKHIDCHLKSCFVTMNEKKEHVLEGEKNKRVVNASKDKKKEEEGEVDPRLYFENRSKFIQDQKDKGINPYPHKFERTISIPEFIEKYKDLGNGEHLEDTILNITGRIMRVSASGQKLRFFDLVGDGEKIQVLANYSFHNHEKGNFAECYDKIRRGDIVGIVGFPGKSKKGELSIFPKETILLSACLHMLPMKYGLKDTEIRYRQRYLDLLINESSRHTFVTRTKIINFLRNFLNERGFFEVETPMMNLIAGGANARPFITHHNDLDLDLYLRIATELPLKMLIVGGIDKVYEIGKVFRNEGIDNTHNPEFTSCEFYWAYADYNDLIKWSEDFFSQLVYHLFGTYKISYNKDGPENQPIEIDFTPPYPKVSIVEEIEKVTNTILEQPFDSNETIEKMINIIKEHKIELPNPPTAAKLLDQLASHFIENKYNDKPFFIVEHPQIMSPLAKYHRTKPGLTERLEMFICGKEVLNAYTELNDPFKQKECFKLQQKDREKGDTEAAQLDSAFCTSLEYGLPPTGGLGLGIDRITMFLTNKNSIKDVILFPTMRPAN

Data taken from ChEMBL document CHEMBL3988442, “University of Dundee, Small-Polar-MMV Screening Library” (2021).

Pks13 thioesterase: 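Enzyme assay of the thioesterase domain of polyketide synthase 13; the read-out is not stated. Target: Polyketide synthase Pks13, Mycobacterium tuberculosis (UniProt I6X8D2). Concentration: 30 µM. Higher reads as stronger inhibition (inferred from which compounds were picked for retests). Size under these conditions: about 67,000 compounds, about 300 of them at 50% or above in at least one test.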
MtTrpRS: 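Tryptophan-tRNA ligase, Mycobacterium tuberculosis (UniProt P9WFT3). Enzyme assay of tryptophanyl-tRNA synthetase; the read-out is not stated. Tested at 10 µM. Higher most likely means stronger inhibition; the record gives no direction and few retests gave an IC50. About 65,000 compounds were tested under these conditions; 0.098% (about 64) showed 50% or more at least once.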
CoaBC: 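Enzyme assay of CoaBC with a phosphate dye (Biomol Green) read at 650 nm. Target: Coenzyme A biosynthesis protein CoaBC, Mycobacterium tuberculosis (UniProt P9WNZ1). Compounds at 30 µM. Direction is inferred from only a few compounds that gave an IC50; most scored high, so higher reads as stronger inhibition. Most strong results did not repeat in a second test. About 67,000 compounds were tested under these conditions; 0.06% (about 40) showed 50% or more at least once.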
PfKRS1: 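Enzyme assay of the cytosolic lysyl-tRNA synthetase in 384-well plates, read by luminescence. Target: Lysine-tRNA ligase, Plasmodium falciparum 3D7 (UniProt Q8IDJ8). Compounds at 30 µM. Higher reads as stronger inhibition, judged from the few compounds that gave an IC50. Size under these conditions: about 69,000 compounds, about 49 of them at 50% or above in at least one test.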

Each number is a percent effect as filed. The record does not define 0% and 100%; most values in the screen are far below 50% and negative numbers occur (in some assays of this library far below -100). Compounds were drawn at random from those tested, without regard to their results. A dash means the value is not listed here; it may have been measured.

| structure | Pks13 thioesterase | MtTrpRS | CoaBC | PfKRS1 |
|---|---|---|---|---|
| `O=C(C[C@@H]1COC[C@H]2CN(Cc3ccc(F)cc3)C[C@@H]12)N1CCOCC1` | -22.74 | 4.422 | -0.4038 | -8.968 |
| `Cc1cc(N2CCC3(CCCN(C4CCOCC4)C3=O)C2)ccn1` (stereo not shown) | -3.976 | 1.355 | 6.624 | -19.1 |
| `CCCN1CCC2(C1)c1ccccc1S(=O)(=O)N2Cc1ccccc1` (stereo not shown) | -8.677 | 0.549 | -1.844 | 3.417 |
| `O=C(NCc1ccc2c(c1)OCO2)c1ccc(N2CCCCCC2)nc1` | -11.3 | 0.9804 | 2.545 | 6.801 |
| `CC(C)NC(=O)C1CCN(c2nc3nc[nH]c(=O)c3s2)CC1` | 6.421 | -4.502 | -0.3645 | 5.683 |
| `CCOc1ccnc(NCCc2nc(C)cc(=O)[nH]2)n1` | -18.98 | 0.4471 | -8.557 | 3.078 |
| `COc1ncccc1CN1CC[C@H]2[C@H]1CCN2CCN(C)C` | -35.82 | -5.426 | -6.131 | -0.6827 |
| `Cc1cnc(N2CC[C@@H]3O[C@@H](COCc4ccccn4)CC[C@@H]32)nc1` | -7.064 | -5.08 | 0.618 | -0.5155 |
| `O[C@@]1(CNCCCNc2cccnc2)CCCN2CCCC[C@@H]21` | 8.73 | -3.473 | 0.6211 | 2.229 |
| `CNc1cccc(C2CCN(C(=O)c3cccnc3)CC2)n1` | -10.4 | - | 2.421 | 1.794 |
| `Cc1ccc(-c2nc(CC(=O)NCC3CCCN(C(C)C)C3)cs2)o1` (stereo not shown) | 22.72 | 6.757 | 5.645 | -1.473 |
| `COCCc1noc(CN2CCC3(CCCO3)CCC2=O)n1` (stereo not shown) | 5.91 | 1.374 | -0.5141 | 0.9565 |
| `O=C1c2ccccc2C(=O)N1CC(O)Cn1nc(-c2cccs2)oc1=O` (stereo not shown) | -1.333 | 4.272 | -0.4132 | 7.845 |
| `c1ncn(CC2CCCN(Cc3nc(-c4ccoc4)no3)C2)n1` (stereo not shown) | 1.956 | 0.9169 | 2.625 | 0.763 |
| `CS(=O)(=O)c1ccc(NC(=O)CSc2ccc3c(c2)CCC3)cc1` | -6.675 | 6.734 | 2.381 | 6.575 |
| `Cc1cccnc1NC(=O)NC(C)Cn1cccn1` (stereo not shown) | -9.458 | -2.958 | -2.169 | 0.7072 |
| `CC(C)Sc1ncccc1C(=O)NCc1ccoc1` | -5.234 | -0.8992 | -6.335 | 1.942 |
| `CCS(=O)(=O)Nc1ccn(Cc2ccc(F)cc2Cl)n1` | 0.4853 | 3.819 | -2.806 | 3.777 |
| `CCn1ccnc1CN(C)C1CCCN(CCc2ccccc2)C1` (stereo not shown) | -10.49 | 4.557 | -3.182 | -3.108 |
| `CC(=O)N1CCCC2(CCC(=O)N2Cc2cccnc2)C1` (stereo not shown) | -68.24 | 7.703 | 5.792 | 1.288 |
| `O=C(CCCc1ccccc1)N1CCCC(n2cncn2)C1` (stereo not shown) | 7.989 | -6.772 | 1.754 | -0.5107 |
| `Cc1ccc(C(=O)Nc2cnn(CC(=O)NC3CCCC3)c2)c(=O)[nH]1` | -18.23 | 1.481 | -3.03 | 7.914 |
| `CC(C)(C)C(O)CN1CCN(Cc2nccn2CC(F)(F)F)CC1` (stereo not shown) | -11.54 | -3.673 | 5.683 | 6.769 |
| `CS(=O)(=O)N1CCc2sc(C(=O)NCc3ccncc3)cc21` | -12.4 | -3.28 | 4.069 | 2.925 |
| `Cc1cccc(Nc2nccnc2C2CCCN2CC(=O)N(C)C)n1` (stereo not shown) | 2.573 | 0.7048 | -2.591 | 2.038 |
| `O=C(c1cnc(-c2ccco2)s1)N1CCCC1Cn1cccn1` (stereo not shown) | 6.572 | 0.8772 | 2.35 | 1.452 |
| `CC(NC(=O)NCCCn1cncn1)c1ccc2c(c1)OCCO2` (stereo not shown) | -5.613 | -0.2916 | 8.432 | 4.086 |
| `Cc1csc(CN2C[C@@H]3CN(S(C)(=O)=O)CCO[C@@H]3C2)n1` | -12.69 | -7.768 | 4.187 | 1.503 |
| `Cc1noc(CCCC(=O)NCCc2cc3ccccc3[nH]2)n1` | -9.391 | 1.117 | 4.673 | 2.334 |
| `CCCn1nnc2c(sc3nc(N4CCOCC4)c4c(c32)CCC4)c1=O` | -12.05 | 0.4531 | -0.9639 | -4.164 |
| `Cc1cccc2c(CCNS(=O)(=O)C3CCOC3)c[nH]c12` (stereo not shown) | -16.84 | 1.09 | 6.452 | 0.5357 |
| `O=C(NCCNc1ncccn1)c1ccc(-c2ccco2)[nH]c1=O` | -7.213 | 0.3912 | 2.728 | 5.322 |
| `CCN1C[C@H]2C[C@H](C(=O)Nc3ccccc3)[C@@H](C1)O2` | -6.401 | -1.407 | 5.25 | 3.695 |
| `COc1ccccc1OCCNC(=O)CN1CCN(C)CC1C` (stereo not shown) | -6.899 | 1.548 | 2.366 | 0.5689 |
| `CC1CCCCN1Cc1nc(Cc2ccccc2)no1` (stereo not shown) | -3.599 | -0.3112 | 4.519 | 7.087 |
| `Cc1nc(CNC(=O)c2ccc3c(c2)nc(N2CCOCC2)n3C)cs1` | -4.74 | 4.201 | 3.571 | 6.759 |
| `O=C(CC1CC1)N[C@@H]1CN(C(=O)c2ccoc2)C[C@@H]2CCCO[C@@H]21` | -14.64 | - | 1.733 | 4.228 |
| `CCn1cc(CNC(=O)C2CCCC2)cn1` | 24.76 | 1.22 | 0.6329 | 3.139 |
| `OC(CN(Cc1ccccc1)Cc1cscn1)c1ccco1` (stereo not shown) | -14.18 | -5.69 | 10.08 | 1.234 |
| `Cc1cc(CN2C[C@@H]3CN(C(=O)c4cccn4C)CCO[C@@H]3C2)no1` | -6.995 | -6.858 | 5.447 | -0.9435 |

2 of the entries, repeated:

CCN1C[C@H]2C[C@H](C(=O)Nc3ccccc3)[C@@H](C1)O2 gave Pks13 thioesterase: -6.401%; MtTrpRS: -1.407%; CoaBC: 5.25%; PfKRS1: 3.695%.
O=C(NCCNc1ncccn1)c1ccc(-c2ccco2)[nH]c1=O gave Pks13 thioesterase: -7.213%; MtTrpRS: 0.3912%; CoaBC: 2.728%; PfKRS1: 5.322%.